From publication PMC3875777
Construct, isoform or probe ends are uncertain for at least one entry. At least one result comes from cells or an extract, where the contact may be indirect. A weaker result is weaker than the reference pair of the same experiment.

System: RNA polymerase II (endogenous)
Test: pull-down
Settings: Pull-down: 100-250 pmole probe on M-280 streptavidin Dynabeads, 100-250 ug nuclear extract, 2.5 ug salmon sperm DNA, 1 h room temperature, washes with 0.5% NP-40, protein in an extract, label: 5'-biotin

Q: What does the source list for “GAGCGCCTCCTTAAAGCCCCCACAA (double strand) [MMP9 TATA WT]”?
A: binding result (HOXA2-expressing HK1 extract): binds more weakly; binding result (vector HK1 extract): binds
